Results deposited as PubChem BioAssay AID1259254 (NCATS, 2017)
Screen: 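Finding genes that stop cells copying their DNA twice in one cycle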 (primary screen). Cell system: human HCT116 colorectal cancer cells. Knock-down reagent: single siRNA against human genes. Duration: 3 days. Read-out: 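Imaged Hoechst DNA stain sorts each cell into a cycle phase by DNA amount; per plate, G2 fraction set to 0% for non-targeting and 100% for GMNN siRNA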. Scale: G2 robust z-score and G2 cells, % of GMNN control: higher = more G2 cells, more excess DNA replication. Call rule: 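An siRNA counts as active if its G2 robust z-score lies at least 5 MADs above the screen median; here such calls match roughly 38% of GMNN control or more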.
In all, the deposit lists about 59,000 reagents; below is a part drawn at random. About 1,550 of them (2.6%) were called active. 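G2 share is only a proxy for re-replication; each gene was hit by three separate siRNAs, and active genes were retested.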 The numbers tell different reagents against one gene apart. Not all columns of the deposit are shown. Not stated in the record: the amount of reagent.

no.	target gene	siRNA no.	G2 robust z-score	G2 cells, % of GMNN control	activity call
1	FAM216B (family with sequence similarity 216 member B)	1	-0.669	-1.74	inactive
2	FAM216B (family with sequence similarity 216 member B)	2	-0.491	-0.491	inactive
3	FAM216B (family with sequence similarity 216 member B)	3	-0.219	1.42	inactive
4	KCNH4 (potassium voltage-gated channel subfamily H member 4)	1	0.324	5.24	inactive
5	KCNH4 (potassium voltage-gated channel subfamily H member 4)	2	1.17	11.2	inactive
6	KCNH4 (potassium voltage-gated channel subfamily H member 4)	3	4.37	33.7	inactive
7	GTF3C3 (general transcription factor IIIC subunit 3)	1	-0.78	-2.52	inactive
8	GTF3C3 (general transcription factor IIIC subunit 3)	2	2.36	19.6	inactive
9	GTF3C3 (general transcription factor IIIC subunit 3)	3	-0.884	-3.25	inactive
10	FLJ13224	1	-0.625	-1.43	inactive
11	FLJ13224	2	0.619	7.32	inactive
12	FLJ13224	3	-0.864	-3.11	inactive
13	CELA1 (chymotrypsin like elastase 1)	1	8.26	61.1	active
14	CELA1 (chymotrypsin like elastase 1)	2	0.439	6.05	inactive
15	CELA1 (chymotrypsin like elastase 1)	3	-0.457	-0.251	inactive
16	SMC2 (structural maintenance of chromosomes 2)	1	6.56	49.1	active
17	SMC2 (structural maintenance of chromosomes 2)	2	4.27	33	inactive
18	SMC2 (structural maintenance of chromosomes 2)	3	6.89	51.4	active
19	ALYREF (Aly/REF export factor)	1	-0.461	-0.278	inactive
20	ALYREF (Aly/REF export factor)	2	1.57	14	inactive
21	ALYREF (Aly/REF export factor)	3	0.249	4.72	inactive
22	UNC80 (unc-80 subunit of NALCN channel complex)	1	-0.494	-0.505	inactive
23	UNC80 (unc-80 subunit of NALCN channel complex)	2	0.00869	3.03	inactive
24	UNC80 (unc-80 subunit of NALCN channel complex)	3	0.116	3.79	inactive
25	FOXN1 (forkhead box N1)	1	1.85	16	inactive
26	FOXN1 (forkhead box N1)	2	-1.28	-6.01	inactive
27	FOXN1 (forkhead box N1)	3	-0.633	-1.49	inactive
28	CYB5R3 (cytochrome b5 reductase 3)	1	2.61	21.3	inactive
29	CYB5R3 (cytochrome b5 reductase 3)	2	1.97	16.8	inactive
30	CYB5R3 (cytochrome b5 reductase 3)	3	1.17	11.2	inactive

The list goes on; the last 9 above are carried over.
no.	target gene	siRNA no.	G2 robust z-score	G2 cells, % of GMNN control	activity call
22	UNC80 (unc-80 subunit of NALCN channel complex)	1	-0.494	-0.505	inactive
23	UNC80 (unc-80 subunit of NALCN channel complex)	2	0.00869	3.03	inactive
24	UNC80 (unc-80 subunit of NALCN channel complex)	3	0.116	3.79	inactive
25	FOXN1 (forkhead box N1)	1	1.85	16	inactive
26	FOXN1 (forkhead box N1)	2	-1.28	-6.01	inactive
27	FOXN1 (forkhead box N1)	3	-0.633	-1.49	inactive
28	CYB5R3 (cytochrome b5 reductase 3)	1	2.61	21.3	inactive
29	CYB5R3 (cytochrome b5 reductase 3)	2	1.97	16.8	inactive
30	CYB5R3 (cytochrome b5 reductase 3)	3	1.17	11.2	inactive
31	DSTNP4 (DSTN pseudogene 4)	1	-0.497	-0.527	inactive
32	DSTNP4 (DSTN pseudogene 4)	2	1.81	15.7	inactive
33	DSTNP4 (DSTN pseudogene 4)	3	0.243	4.68	inactive
34	MAPK12 (mitogen-activated protein kinase 12)	1	-1.05	-4.41	inactive
35	MAPK12 (mitogen-activated protein kinase 12)	2	-0.733	-2.19	inactive
36	MAPK12 (mitogen-activated protein kinase 12)	3	0.0695	3.46	inactive
37	DLX6 (distal-less homeobox 6)	1	-0.764	-2.41	inactive
38	DLX6 (distal-less homeobox 6)	2	4.64	35.6	inactive
39	DLX6 (distal-less homeobox 6)	3	0.838	8.86	inactive
40	VSNL1 (visinin like 1)	1	-0.668	-1.73	inactive
41	VSNL1 (visinin like 1)	2	1.08	10.6	inactive
42	VSNL1 (visinin like 1)	3	1.68	14.8	inactive
43	STUB1 (STIP1 homology and U-box containing protein 1)	1	-1.55	-7.93	inactive
44	STUB1 (STIP1 homology and U-box containing protein 1)	2	-0.975	-3.89	inactive
45	STUB1 (STIP1 homology and U-box containing protein 1)	3	0.171	4.17	inactive
46	GNAI3 (G protein subunit alpha i3)	1	0.261	4.8	inactive
47	GNAI3 (G protein subunit alpha i3)	2	-0.301	0.851	inactive
48	GNAI3 (G protein subunit alpha i3)	3	0.16	4.09	inactive
49	GATAD2B (GATA zinc finger domain containing 2B)	1	-0.509	-0.614	inactive
50	GATAD2B (GATA zinc finger domain containing 2B)	2	-0.277	1.02	inactive
51	GATAD2B (GATA zinc finger domain containing 2B)	3	0.68	7.75	inactive
52	SYT5 (synaptotagmin 5)	1	-0.205	1.52	inactive
53	SYT5 (synaptotagmin 5)	2	-0.841	-2.95	inactive
54	SYT5 (synaptotagmin 5)	3	0.109	3.74	inactive
55	TPCN2 (two pore segment channel 2)	1	-0.878	-3.21	inactive
56	TPCN2 (two pore segment channel 2)	2	0.34	5.36	inactive
57	TPCN2 (two pore segment channel 2)	3	-0.919	-3.5	inactive
58	GPR85 (G protein-coupled receptor 85)	1	-0.408	0.0996	inactive
59	GPR85 (G protein-coupled receptor 85)	2	0.0222	3.12	inactive
60	GPR85 (G protein-coupled receptor 85)	3	-0.641	-1.54	inactive
61	LIMD1-AS1 (LIMD1 antisense RNA 1)	1	0.0523	3.34	inactive
62	LIMD1-AS1 (LIMD1 antisense RNA 1)	2	-0.78	-2.52	inactive
63	LIMD1-AS1 (LIMD1 antisense RNA 1)	3	3.2	25.5	inactive
64	EPHA3 (EPH receptor A3)	1	-1.07	-4.58	inactive
65	EPHA3 (EPH receptor A3)	2	0.0886	3.59	inactive
66	EPHA3 (EPH receptor A3)	3	0	2.97	inactive
67	RNASE3 (ribonuclease A family member 3)	1	-0.367	0.385	inactive
68	RNASE3 (ribonuclease A family member 3)	2	-0.911	-3.44	inactive
69	RNASE3 (ribonuclease A family member 3)	3	-0.873	-3.17	inactive
70	C1DP3 (C1D nuclear receptor corepressor pseudogene 3)	1	7.65	56.8	active
71	C1DP3 (C1D nuclear receptor corepressor pseudogene 3)	2	1.04	10.3	inactive
72	C1DP3 (C1D nuclear receptor corepressor pseudogene 3)	3	-0.488	-0.465	inactive
73	ATF5 (activating transcription factor 5)	1	-0.312	0.77	inactive
74	ATF5 (activating transcription factor 5)	2	1.86	16.1	inactive
75	ATF5 (activating transcription factor 5)	3	-0.19	1.63	inactive
76	OAS3 (2'-5'-oligoadenylate synthetase 3)	1	-0.646	-1.58	inactive
77	OAS3 (2'-5'-oligoadenylate synthetase 3)	2	1.63	14.5	inactive
78	OAS3 (2'-5'-oligoadenylate synthetase 3)	3	-0.776	-2.49	inactive
79	LOC729968 (spore coat protein SP96)	1	1.18	11.3	inactive
80	LOC729968 (spore coat protein SP96)	2	0.248	4.71	inactive
81	LOC729968 (spore coat protein SP96)	3	-0.223	1.4	inactive
82	LOC729968 (spore coat protein SP96)	4	1.82	15.8	inactive
83	LOC729968 (spore coat protein SP96)	5	-0.0145	2.87	inactive
84	LOC729968 (spore coat protein SP96)	6	-0.496	-0.519	inactive
85	RLN2 (relaxin 2)	1	-0.867	-3.13	inactive
86	RLN2 (relaxin 2)	2	-0.269	1.08	inactive
87	RLN2 (relaxin 2)	3	2.76	22.4	inactive
